Reference: PMC9699620
No constants are given. Whether binding was seen depends on the method and setting. Binding seen in cells or lysates may run through a third protein. These calls come from enrichment with a bait or labelling near it, and not all partners need be listed.

The chains behind the UniProt entries cited, without tags or fusion partners.
UniProt O43150: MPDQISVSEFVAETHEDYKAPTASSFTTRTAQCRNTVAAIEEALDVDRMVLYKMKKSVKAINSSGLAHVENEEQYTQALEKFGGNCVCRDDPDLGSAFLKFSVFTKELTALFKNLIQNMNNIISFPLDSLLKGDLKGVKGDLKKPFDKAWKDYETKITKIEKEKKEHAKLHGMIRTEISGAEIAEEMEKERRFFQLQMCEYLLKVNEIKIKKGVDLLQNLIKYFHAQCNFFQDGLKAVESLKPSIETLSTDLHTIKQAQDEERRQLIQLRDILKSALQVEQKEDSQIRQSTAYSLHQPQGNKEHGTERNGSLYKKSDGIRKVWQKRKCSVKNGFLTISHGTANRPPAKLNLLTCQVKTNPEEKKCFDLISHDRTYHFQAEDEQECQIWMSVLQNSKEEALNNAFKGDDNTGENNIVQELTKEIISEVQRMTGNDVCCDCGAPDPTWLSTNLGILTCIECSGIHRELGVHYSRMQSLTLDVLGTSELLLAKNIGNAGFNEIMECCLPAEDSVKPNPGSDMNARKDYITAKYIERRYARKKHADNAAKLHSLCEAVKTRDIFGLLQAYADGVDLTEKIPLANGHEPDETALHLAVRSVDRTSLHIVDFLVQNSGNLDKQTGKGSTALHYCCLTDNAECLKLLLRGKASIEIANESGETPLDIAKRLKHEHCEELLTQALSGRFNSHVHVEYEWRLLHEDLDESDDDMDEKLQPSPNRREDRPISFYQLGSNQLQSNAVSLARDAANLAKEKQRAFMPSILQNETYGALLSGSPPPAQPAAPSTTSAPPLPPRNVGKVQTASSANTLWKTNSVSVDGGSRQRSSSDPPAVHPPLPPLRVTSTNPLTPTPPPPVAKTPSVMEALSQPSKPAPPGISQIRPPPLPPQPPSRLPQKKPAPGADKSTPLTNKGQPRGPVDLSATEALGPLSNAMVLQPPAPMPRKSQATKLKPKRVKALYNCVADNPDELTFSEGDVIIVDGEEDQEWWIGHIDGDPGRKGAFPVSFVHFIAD
UniProt Q96BY6: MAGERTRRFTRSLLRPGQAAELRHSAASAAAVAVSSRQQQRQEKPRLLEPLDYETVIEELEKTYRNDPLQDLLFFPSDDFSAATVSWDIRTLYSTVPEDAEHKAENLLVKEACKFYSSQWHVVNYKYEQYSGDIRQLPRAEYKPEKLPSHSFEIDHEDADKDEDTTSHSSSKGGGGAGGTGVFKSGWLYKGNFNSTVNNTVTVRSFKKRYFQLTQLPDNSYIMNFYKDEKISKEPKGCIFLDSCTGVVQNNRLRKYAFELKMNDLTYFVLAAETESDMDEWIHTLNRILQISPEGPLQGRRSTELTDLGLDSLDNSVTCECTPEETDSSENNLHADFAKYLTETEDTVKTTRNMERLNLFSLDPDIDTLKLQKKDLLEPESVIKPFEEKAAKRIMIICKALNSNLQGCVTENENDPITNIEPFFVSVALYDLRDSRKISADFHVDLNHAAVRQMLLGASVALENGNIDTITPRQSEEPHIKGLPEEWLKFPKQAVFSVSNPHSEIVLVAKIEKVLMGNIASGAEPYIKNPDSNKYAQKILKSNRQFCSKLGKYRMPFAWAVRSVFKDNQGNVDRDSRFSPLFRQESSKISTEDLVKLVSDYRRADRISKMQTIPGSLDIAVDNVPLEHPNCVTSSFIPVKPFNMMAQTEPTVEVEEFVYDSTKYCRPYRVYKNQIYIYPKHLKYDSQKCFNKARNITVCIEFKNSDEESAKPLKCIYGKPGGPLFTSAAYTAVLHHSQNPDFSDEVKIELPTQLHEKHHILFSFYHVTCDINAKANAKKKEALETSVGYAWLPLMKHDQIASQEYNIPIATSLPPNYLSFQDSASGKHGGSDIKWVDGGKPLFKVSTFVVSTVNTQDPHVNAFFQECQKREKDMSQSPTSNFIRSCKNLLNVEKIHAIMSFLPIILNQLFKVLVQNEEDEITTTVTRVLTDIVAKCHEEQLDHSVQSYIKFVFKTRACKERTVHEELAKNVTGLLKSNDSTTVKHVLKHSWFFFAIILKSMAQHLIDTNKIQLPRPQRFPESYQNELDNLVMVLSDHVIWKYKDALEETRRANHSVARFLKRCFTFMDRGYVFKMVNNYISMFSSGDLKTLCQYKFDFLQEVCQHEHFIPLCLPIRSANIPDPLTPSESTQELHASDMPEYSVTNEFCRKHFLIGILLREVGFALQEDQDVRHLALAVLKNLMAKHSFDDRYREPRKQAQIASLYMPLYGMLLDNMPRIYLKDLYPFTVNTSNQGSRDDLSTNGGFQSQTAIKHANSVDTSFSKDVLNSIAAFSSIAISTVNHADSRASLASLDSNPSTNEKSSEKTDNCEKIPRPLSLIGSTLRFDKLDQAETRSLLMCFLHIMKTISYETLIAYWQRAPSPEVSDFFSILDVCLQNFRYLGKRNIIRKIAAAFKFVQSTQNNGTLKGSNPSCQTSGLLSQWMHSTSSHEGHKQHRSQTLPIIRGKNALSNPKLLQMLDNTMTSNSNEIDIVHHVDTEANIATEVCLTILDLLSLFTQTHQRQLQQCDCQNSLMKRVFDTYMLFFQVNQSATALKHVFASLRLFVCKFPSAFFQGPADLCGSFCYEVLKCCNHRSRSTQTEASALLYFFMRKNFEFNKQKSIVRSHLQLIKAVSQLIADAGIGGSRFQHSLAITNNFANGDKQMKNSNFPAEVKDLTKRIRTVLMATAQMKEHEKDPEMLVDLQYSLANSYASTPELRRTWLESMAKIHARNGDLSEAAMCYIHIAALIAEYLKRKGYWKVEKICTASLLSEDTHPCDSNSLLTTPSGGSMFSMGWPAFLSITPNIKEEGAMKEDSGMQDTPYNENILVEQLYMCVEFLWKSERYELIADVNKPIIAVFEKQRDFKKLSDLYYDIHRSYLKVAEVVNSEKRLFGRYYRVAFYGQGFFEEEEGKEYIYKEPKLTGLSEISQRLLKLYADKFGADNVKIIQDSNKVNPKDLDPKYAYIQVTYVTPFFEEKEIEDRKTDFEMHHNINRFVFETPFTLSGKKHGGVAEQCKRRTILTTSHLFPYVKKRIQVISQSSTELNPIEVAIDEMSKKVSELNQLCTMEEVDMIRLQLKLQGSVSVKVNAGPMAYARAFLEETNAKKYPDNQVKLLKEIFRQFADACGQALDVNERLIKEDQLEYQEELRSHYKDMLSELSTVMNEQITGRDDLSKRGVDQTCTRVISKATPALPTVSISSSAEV
UniProt P08134: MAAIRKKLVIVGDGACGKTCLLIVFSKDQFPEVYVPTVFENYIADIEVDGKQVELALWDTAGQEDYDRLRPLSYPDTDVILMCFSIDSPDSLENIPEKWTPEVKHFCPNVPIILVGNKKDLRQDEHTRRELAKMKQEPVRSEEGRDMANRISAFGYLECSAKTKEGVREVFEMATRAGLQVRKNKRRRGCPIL
UniProt O75165: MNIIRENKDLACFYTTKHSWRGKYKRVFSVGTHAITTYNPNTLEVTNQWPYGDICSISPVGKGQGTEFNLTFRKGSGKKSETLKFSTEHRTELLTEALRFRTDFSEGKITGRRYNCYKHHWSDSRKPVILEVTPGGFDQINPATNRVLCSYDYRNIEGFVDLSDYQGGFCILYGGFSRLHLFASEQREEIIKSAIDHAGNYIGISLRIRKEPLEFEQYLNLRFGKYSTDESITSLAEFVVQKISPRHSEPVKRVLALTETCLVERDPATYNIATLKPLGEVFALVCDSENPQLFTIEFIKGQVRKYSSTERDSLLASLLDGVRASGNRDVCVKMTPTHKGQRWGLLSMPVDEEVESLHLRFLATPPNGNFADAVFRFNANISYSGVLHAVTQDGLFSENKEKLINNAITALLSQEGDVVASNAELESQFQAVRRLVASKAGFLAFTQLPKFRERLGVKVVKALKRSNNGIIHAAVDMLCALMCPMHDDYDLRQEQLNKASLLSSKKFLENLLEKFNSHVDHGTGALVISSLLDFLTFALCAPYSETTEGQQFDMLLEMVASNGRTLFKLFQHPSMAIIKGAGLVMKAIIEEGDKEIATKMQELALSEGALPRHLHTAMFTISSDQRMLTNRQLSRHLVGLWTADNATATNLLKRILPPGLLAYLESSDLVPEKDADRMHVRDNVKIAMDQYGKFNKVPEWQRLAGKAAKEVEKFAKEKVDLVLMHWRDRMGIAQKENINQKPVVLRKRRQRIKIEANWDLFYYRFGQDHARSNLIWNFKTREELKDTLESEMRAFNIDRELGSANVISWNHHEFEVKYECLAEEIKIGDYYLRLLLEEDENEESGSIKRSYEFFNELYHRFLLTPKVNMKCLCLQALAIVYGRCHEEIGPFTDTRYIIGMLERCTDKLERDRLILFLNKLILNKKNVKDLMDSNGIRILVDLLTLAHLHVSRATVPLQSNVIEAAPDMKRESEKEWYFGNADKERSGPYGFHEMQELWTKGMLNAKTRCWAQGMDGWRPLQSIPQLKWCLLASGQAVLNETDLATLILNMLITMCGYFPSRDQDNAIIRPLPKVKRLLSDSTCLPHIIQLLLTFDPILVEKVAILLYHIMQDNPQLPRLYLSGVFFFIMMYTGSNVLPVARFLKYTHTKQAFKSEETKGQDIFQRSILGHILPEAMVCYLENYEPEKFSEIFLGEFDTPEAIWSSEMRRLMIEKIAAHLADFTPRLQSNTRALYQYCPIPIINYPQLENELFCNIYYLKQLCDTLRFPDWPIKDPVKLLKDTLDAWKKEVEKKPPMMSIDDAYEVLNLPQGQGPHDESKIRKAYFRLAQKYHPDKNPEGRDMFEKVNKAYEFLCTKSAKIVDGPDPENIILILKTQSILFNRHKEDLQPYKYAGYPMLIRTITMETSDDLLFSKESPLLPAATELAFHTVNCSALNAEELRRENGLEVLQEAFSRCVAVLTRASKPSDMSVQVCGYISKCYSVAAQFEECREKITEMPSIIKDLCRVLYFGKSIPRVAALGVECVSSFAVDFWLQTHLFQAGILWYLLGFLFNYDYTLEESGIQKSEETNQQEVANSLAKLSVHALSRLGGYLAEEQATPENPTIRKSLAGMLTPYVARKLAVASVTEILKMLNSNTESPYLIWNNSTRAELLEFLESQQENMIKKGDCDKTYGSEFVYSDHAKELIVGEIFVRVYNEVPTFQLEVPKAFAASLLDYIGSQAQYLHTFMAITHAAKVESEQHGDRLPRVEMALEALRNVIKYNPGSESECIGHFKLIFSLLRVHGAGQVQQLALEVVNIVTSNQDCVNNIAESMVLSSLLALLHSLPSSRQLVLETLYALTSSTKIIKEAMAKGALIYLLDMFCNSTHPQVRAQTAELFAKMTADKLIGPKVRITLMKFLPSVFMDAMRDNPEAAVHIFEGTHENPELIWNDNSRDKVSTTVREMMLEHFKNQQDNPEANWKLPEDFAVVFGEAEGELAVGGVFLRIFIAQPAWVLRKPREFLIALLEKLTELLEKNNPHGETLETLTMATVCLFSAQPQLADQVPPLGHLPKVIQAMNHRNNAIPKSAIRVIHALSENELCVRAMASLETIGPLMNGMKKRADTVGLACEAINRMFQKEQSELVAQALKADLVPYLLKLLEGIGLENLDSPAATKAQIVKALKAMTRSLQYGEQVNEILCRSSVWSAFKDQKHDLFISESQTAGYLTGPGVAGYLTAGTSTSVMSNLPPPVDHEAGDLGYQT
UniProt P41091: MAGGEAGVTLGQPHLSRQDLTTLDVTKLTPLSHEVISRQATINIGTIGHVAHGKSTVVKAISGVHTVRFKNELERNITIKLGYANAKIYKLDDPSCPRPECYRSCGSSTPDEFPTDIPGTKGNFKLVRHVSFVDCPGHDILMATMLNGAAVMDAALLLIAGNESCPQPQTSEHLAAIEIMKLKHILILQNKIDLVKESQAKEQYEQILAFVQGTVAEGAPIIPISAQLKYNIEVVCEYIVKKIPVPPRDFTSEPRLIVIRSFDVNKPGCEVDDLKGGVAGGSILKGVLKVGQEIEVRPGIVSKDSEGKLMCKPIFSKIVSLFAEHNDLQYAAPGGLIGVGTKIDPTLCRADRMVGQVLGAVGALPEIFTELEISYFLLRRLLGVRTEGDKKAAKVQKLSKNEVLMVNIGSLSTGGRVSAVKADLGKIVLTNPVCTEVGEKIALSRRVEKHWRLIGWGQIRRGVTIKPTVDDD

Tests used:
[1] = biological target: ArfGAP with SH3 Domain, Ankyrin Repeat and PH Domain 2 (ASAP2) (human (endogenous in THP-1)) (UniProt O43150); assay: affinity purification with mass spectrometry; immunoprecipitation with anti-ASAP2 antibody from lysate of 1,25(OH)2D3-stimulated THP-1 M0 macrophages; protein A/G beads, 4 °C; normal IgG as negative control
[2] = biological target: ArfGAP with SH3 Domain, Ankyrin Repeat and PH Domain 2 (ASAP2) (human (endogenous in THP-1)) (UniProt O43150); assay: affinity purification with mass spectrometry; ASAP2 interactome from lysate of 1,25(OH)2D3-stimulated THP-1 monocytes; protein A/G beads, 4 °C
[3] = biological target: ArfGAP with SH3 Domain, Ankyrin Repeat and PH Domain 2 (ASAP2) (human (endogenous in THP-1)) (UniProt O43150); assay: affinity purification with mass spectrometry; immunoprecipitation with anti-ASAP2 antibody from lysate of 1,25(OH)2D3-stimulated THP-1 M0 macrophages; protein A/G beads, 4 °C; normal IgG as negative control; remark: listed apart in the source

binding [1] | binding [2] | binding [3] | Molecule
binds | – | – | DOCK10 (from UniProt Q96BY6 1-2186)
binds | – | – | RHOC (from UniProt P08134 1-193)

The remaining lines, values behind:

Molecule | binding [1] | binding [2] | binding [3]
DNAJC13 (from UniProt O75165 1-2243) | binds | – | –
EIF2S3 (from UniProt P41091 1-472) | binds | – | –
SAM and HD domain-containing deoxynucleoside triphosphate triphosphohydrolase 1 (SAMHD1) (from UniProt Q9Y3Z3 1-626) | binds | binds | –
FKBP15 (protein, UniProt Q5T1M5 1-1219) MFGAGDEDDTDFLSPSGGARLASLFGLDQAAAGHGNEFFQYTAPKQPKKGQGTAATGNQATPKTAPATMSTPTILVATAVHAYRYTNGQYVKQGKFGAAVLGNHTAREYRILLYISQQQPVTVARIHVNFELMVRPNNYSTFYDDQRQNWSIMFESEKAAVEFNKQVCIAKCNSTSSLDAVLSQDLIVADGPAVEVGDSLEVAYTGWLFQNHVLGQVFDSTANKDKLLRLKLGSGKVIKGWEDGMLGMKKGGKRLLIVPPACAVGSEGVIGWTQATDSILVFEVEVRRVKFARDSGSDGHSVSSRDSAAPSPIPGADNLSADPVVSPPTSIPFKSGEPALRTKSNSLSEQLAINTSPDAVKAKLISRMAKMGQPMLPILPPQLDSNDSEIEDVNTLQGGGQPVVTPSVQPSLHPAHPALPQMTSQAPQPSVTGLQAPSAALMQVSSLDSHSAVSGNAQSFQPYAGMQAYAYPQASAVTSQLQPVRPLYPAPLSQPPHFQGSGDMASFLMTEARQHNTEIRMAVSKVADKMDHLMTKVEELQKHSAGNSMLIPSMSVTMETSMIMSNIQRIIQENERLKQEILEKSNRIEEQNDKISELIERNQRYVEQSNLMMEKRNNSLQTATENTQARVLHAEQEKAKVTEELAAATAQVSHLQLKMTAHQKKETELQMQLTESLKETDLLRGQLTKVQAKLSELQETSEQAQSKFKSEKQNRKQLELKVTSLEEELTDLRVEKESLEKNLSERKKKSAQERSQAEEEIDEIRKSYQEELDKLRQLLKKTRVSTDQAAAEQLSLVQAELQTQWEAKCEHLLASAKDEHLQQYQEVCAQRDAYQQKLVQLQEKCLALQAQITALTKQNEQHIKELEKNKSQMSGVEAAASDPSEKVKKIMNQVFQSLRREFELEESYNGRTILGTIMNTIKMVTLQLLNQQEQEKEESSSEEEEEKAEERPRRPSQEQSASASSGQPQAPLNRERPESPMVPSEQVVEEAVPLPPQALTTSQDGHRRKGDSEAEALSEIKDGSLPPELSCIPSHRVLGPPTSIPPEPLGPVSMDSECEESLAASPMAAKPDNPSGKVCVREVAPDGPLQESSTRLSLTSDPEEGDPLALGPESPGEPQPPQLKKDDVTSSTGPHKELSSTEAGSTVAGAALRPSHHSQRSSLSGDEEDELFKGATLKALRPKAQPEEEDEDEVSMKGRPPPTPLFGDDDDDDDIDWLG | – | – | binds
